Data as given in publication PMC4013589, “LXXLL Peptide Converts Transportan 10 to a Potent Inducer of Apoptosis in Breast Cancer Cells” (International Journal of Molecular Sciences, 2014).
Some compounds share one wording; it may come from a single statement. Where no end group is shown, it is not given here.

Sequences of proteins named here, by UniProt entry; tags and fusion partners are left off. A change or cut given only in a name is not applied to a line headed by its entry.
UniProt Q15788: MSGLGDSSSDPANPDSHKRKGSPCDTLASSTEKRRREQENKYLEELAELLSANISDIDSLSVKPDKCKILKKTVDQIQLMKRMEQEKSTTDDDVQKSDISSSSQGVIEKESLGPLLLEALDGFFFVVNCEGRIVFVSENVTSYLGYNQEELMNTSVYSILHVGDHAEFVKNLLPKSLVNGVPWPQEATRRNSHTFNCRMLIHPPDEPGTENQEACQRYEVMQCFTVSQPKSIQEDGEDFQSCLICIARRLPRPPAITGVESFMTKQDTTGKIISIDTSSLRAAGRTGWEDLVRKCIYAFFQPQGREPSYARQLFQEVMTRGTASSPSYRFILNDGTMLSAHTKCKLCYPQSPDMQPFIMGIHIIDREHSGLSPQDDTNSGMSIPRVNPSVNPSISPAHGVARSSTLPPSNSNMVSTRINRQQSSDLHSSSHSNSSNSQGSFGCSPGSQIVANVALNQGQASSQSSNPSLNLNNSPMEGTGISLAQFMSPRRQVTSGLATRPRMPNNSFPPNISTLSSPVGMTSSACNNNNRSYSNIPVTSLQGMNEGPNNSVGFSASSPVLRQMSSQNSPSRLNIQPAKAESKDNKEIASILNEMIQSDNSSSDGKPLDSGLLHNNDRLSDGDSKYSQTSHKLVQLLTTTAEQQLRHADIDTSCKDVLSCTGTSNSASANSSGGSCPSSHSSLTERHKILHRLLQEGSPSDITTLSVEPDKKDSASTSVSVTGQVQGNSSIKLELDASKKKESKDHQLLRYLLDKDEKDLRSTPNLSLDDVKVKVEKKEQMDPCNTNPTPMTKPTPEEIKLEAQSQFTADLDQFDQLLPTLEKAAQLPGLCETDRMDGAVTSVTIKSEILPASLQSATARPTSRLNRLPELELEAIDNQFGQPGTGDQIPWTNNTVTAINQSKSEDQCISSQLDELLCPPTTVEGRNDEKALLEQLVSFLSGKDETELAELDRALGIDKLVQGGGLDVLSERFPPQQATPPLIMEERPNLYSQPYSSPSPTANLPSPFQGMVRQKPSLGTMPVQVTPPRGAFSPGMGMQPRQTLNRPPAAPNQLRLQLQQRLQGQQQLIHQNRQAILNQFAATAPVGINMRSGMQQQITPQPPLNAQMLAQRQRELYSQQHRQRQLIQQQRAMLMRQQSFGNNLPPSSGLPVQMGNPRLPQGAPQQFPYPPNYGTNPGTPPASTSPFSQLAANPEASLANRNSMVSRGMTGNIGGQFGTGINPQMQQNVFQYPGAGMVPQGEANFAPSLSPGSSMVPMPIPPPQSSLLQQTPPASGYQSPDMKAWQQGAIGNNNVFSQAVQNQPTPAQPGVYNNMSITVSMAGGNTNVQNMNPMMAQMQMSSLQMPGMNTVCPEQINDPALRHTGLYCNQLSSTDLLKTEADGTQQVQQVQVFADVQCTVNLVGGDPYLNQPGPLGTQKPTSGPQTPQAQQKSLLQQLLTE

Tested on: MCF-7 cells
Test: Confocal microscopy of live cells, cellular distribution of FITC-labeled peptides
Assay type: cell-based, human
Details: 5 μM FITC-labeled peptide, 1 h, 37 °C, serum-free stimulation medium, live-cell confocal microscopy

| Substance | Cellular uptake / subcellular localization |
| --- | --- |
| NLS-RRRRRRR-YSQTSHKLVQLLTTAEQQ [R7-SRC1LXXLL] | detected in the cytoplasm and nucleus |
| PKKKRKVAGYLLGKINLKALAALAKKILYSQTSHKLVQLLTTAEQQ [TP10-SRC1LXXLL] | detected in the cytoplasm and nucleus |
| NLS-RRRRRRR-PQMQQNVFQYPGAGMVPQGEANF (NPQMQQNVFQYPGAGMVPQGEANF; N-terminal R7; UniProt Q15788 1222-1245, looked up, fragment) [R7-SRC1_1222–1245, randomly chosen non-structured fragment of SRC-1 with N-terminal R7; negative control] | detected in the cytoplasm and nucleus |
